Results are given in words; binding and its absence hold for the method and conditions named. Binding seen in cells or lysates may run through a third protein. Some entries that bind do so weakly or less than the wild type.
B1: sodium-hydrogen exchanger regulatory factor 1 (protein, UniProt P70441 1-355)
chain: MSADAAAGEPLPRLCCLEKGPNGYGFHLHGEKGKVGQFIRLVEPGSPAEKSGLLAGDRLVEVNGENVEKETHQQVVSRIRAALNAVRLLVVDPETDERLKKLGVSIREELLRPQEKSEQAEPPAAADTHEAGDQNEAEKSHLRELRPRLCTMKKGPNGYGFNLHSDKSKPGQFIRAVDPDSPAEASGLRAQDRIVEVNGVCMEGKQHGDVVSAIKGGGDEAKLLVVDKETDEFFKKCKVIPSQEHLDGPLPEPFSNGEIQKESSREALVEPASESPRPALARSASSDTSEELNSQDSPKRQVSTEPSSTSSSSSDPILDLNISLAVAKERAHQKRSSKRAPQMDWSKKNELFSNL

Sequences of proteins named here, by UniProt entry; tags and fusion partners are left off.
UniProt P26040: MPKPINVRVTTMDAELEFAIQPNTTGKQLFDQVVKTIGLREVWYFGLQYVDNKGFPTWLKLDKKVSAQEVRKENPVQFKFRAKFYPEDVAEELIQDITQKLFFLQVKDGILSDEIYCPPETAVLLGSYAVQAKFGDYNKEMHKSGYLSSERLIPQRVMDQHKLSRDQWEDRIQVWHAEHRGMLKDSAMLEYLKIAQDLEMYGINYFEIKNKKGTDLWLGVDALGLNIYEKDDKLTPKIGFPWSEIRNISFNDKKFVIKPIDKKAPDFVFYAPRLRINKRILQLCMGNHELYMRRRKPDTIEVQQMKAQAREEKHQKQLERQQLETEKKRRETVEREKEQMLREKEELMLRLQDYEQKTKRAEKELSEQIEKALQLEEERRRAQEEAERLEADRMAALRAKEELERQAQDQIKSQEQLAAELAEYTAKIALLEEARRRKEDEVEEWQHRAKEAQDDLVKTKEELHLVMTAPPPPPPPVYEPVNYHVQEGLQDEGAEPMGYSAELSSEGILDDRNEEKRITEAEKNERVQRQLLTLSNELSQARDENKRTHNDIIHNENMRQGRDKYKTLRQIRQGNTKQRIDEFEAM
UniProt Q9JHL1: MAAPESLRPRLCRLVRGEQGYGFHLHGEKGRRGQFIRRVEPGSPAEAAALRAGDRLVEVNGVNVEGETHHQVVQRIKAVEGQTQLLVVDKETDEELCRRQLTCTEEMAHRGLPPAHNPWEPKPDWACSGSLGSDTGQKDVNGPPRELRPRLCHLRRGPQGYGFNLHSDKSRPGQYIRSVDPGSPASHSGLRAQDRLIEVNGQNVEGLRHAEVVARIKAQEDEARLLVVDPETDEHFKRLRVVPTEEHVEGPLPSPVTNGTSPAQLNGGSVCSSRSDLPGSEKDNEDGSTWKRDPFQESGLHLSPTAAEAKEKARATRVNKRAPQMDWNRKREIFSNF
UniProt Q9QUI0: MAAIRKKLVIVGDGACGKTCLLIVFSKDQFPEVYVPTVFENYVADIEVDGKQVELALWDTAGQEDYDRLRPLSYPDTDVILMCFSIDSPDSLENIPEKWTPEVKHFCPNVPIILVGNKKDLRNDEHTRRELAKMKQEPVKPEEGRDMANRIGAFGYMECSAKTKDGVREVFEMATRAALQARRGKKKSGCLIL
UniProt P84096: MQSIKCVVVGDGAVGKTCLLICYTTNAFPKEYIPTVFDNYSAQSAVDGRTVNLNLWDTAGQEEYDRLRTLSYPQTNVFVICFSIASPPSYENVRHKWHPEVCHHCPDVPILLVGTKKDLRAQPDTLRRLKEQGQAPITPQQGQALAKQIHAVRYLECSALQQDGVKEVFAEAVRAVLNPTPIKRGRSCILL

Target: T1, Podocalyxin (mouse (endogenous in E16 forebrain)) (UniProt Q9R0M4)
T1 sequence: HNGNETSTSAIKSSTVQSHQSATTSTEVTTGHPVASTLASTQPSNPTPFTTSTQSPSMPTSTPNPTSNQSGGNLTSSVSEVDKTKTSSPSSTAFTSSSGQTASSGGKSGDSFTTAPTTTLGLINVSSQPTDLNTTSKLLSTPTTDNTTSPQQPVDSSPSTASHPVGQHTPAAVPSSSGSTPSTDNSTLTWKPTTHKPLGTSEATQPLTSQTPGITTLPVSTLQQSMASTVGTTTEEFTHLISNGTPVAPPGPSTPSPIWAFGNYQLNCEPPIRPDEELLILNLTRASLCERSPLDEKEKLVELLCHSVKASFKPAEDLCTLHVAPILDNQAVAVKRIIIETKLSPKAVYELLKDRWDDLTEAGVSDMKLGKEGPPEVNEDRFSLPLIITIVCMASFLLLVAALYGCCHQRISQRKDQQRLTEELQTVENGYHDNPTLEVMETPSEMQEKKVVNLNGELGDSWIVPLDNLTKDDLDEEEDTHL
Experiment: co-IP; E16 mouse forebrain lysates (1% Triton-100 buffer), 300 µg total protein per sample; antibody and protein G-Sepharose beads 2 h at 4°C; five washes with 10 mM Tris pH 8, 500 mM NaCl, 1% Triton X-100, 0.5% NP-40; SDS-PAGE and Western blot

Molecule	binding
Ezrin (from UniProt P26040 1-586)	binds
Na+/H+-Exchanger Regulatory Factor 2 (from UniProt Q9JHL1 1-337)	binds
RhoA (from UniProt Q9QUI0 1-193)	binds
RhoG (from UniProt P84096 1-191)	binds
B1	binds
